Source: US20090326037A1 (priority 2005, published 2009)
Counter-ions that a name gives are not always drawn. Like-named read-outs stand apart in the source and are kept apart here. At least one compound was matched to its structure with a doubt left.

Test system: influenza A/Singapore/1/57 virus
Assay type: cell-based
Conditions: for Percent of inhibition of OD 490: added 2 hours after infection

CCOC(=O)c1c(CSc2ccccc2)n(C)c2cc(Br)c(O)c(CN(C)C)c12 [Arbidol, 1-methyl-2-phenylthiomethyl-3-carbethoxy-4-dimethylaminomethyl-5-oxy-6-bromindol hydrochloride]
Percent of inhibition of OD 490 (A or B 0.3 μg/ml alone (Zanamivir 0)): no
Percent of inhibition of OD 490 (A or B 1 μg/ml alone (Zanamivir 0)): no
Percent of inhibition of OD 490 (A or B 3 μg/ml alone (Zanamivir 0)): no
Percent of inhibition of OD 490 (A or B 5 μg/ml alone (Zanamivir 0)): no
Percent of inhibition of OD 490 (A or C 0.3 μg/ml alone (Oseltamivir 0)): no
Percent of inhibition of OD 490 (A or C 1 μg/ml alone (Oseltamivir 0)): no
Percent of inhibition of OD 490 (A or C 3 μg/ml alone (Oseltamivir 0)): no
Percent of inhibition of OD 490 (A or C 5 μg/ml alone (Oseltamivir 0)): no
action on reproduction of the virus (arbidol alone, added to the cells 2 hours after infection): insignificant action
